Reference: PubChem BioAssay AID1347423 (Functional Genomics Laboratory (NCATS/FGL), 2020)
Screen size: about 52,000 sequences; about 210 (0.4%) were called active.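 How the source made its calls: active means gene whose silencing raises cell survival under the drug, median off-target-corrected z-score across its silencing RNAs 2 or more; inactive means the rest.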 Some of the results follow.

Experiment: Resistance to Poly (ADP-Ribose) Polymerase inhibitor: Gene Identification via Genome-wide siRNA Screen
Details: mouse BRCA2 R2336H ES cells, olaparib, CellTiter-Glo viability; hits give high values
In short: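 Mouse BRCA2 R2336H ES cells were reverse-transfected with siRNA (20 nM final), treated at 48 h with 500 nM olaparib, and read by CellTiter-Glo after 72 h. Scores: MAD-based z per siRNA, median per gene, seed off-target correction.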
In the case of GGAUCUGCAUUUCACUAUUTT against Pik4ca, the z-score is reported as inactive: -0.514. In the case of GCAUCAUGUCAUUCUUUACTT against Fstl5, the z-score is reported as inactive: 0.101. With GGUGUACUUUAUCUCACGATT against Olfr6 the z-score was inactive: 0.675. In the case of “GCACCAUUUUAAGAUCUGCTT against 1110020C13Rik”, the z-score is reported as inactive: 0.381. For CGAAGCAAGAGCACUGCCUTT against Atp6v1h, the z-score was inactive: -0.744. In the case of GCGAACGGACAUCUCCUUCTT against Akr1b8, the z-score is reported as inactive: 0.937. In the case of GGCUUUUUUGCUAUCCUAUTT against Hoxc5, the z-score is reported as inactive: 0.124. For “GGCUAGUGGAACACUUUAGTT against 2210010B09Rik”, the z-score was inactive: -0.759. With “GGCAAGGAAGGAGAUUGCUTT against 2400003C14Rik” the z-score was inactive: -0.376. For GGUUUGUUUGUUUUUUGGUTT against Jub, the z-score was inactive: 0.404. For GCCAGUACCCAUAUGACAGTT against Irx4, the z-score was inactive: 0.46. In the case of CCGUUCCCUAAAUGAAUAUTT against Smc6l1, the z-score is reported as inactive: -0.308. For GCAAGAAGUGGAGUAUUUUTT against AU016977, the z-score was inactive: 0.0217. With GCUGUUAAACGAAAUGUACTT against Esx1 the z-score was inactive: 0.764. In the case of GGUGGUUAUGAUCUAUGAUTT against Dazap1, the z-score is reported as inactive: -0.659. With “GCAUGGACAAAUGUCCCUGTT against 1110055J05Rik” the z-score was inactive: -0.0223. With GGACUUCUACCACUGGAGGTT against Alox12b the z-score was inactive: 0.686. In the case of GCCAGCUAAAGAAGUCUAUTT against Gpr17, the z-score is reported as inactive: -0.363. For GGCCAUUGUGACAAACAGATT against Ltf, the z-score was inactive: 0.509. With “CCUAUAGCCUAUGAGAGAGTT against 4833418A01Rik” the z-score was inactive: 0.0749. With GGCAAACAAAACAUUGUUGTT against Pla2g1br the z-score was inactive: 1.91. In the case of “CCGAUUAGAAAAGACCAAATT against 2610528H13Rik”, the z-score is reported as inactive: 0.624. For CGACCCUAAUCUGGUGAACTT against Mfap5, the z-score was inactive: -0.0603. In the case of “GGCCAUGUGUAAUUGAAGATT against 9230112E08Rik”, the z-score is reported as inactive: 1.59. For GGAGUAUCGGUGACUACGGTT against Chst9, the z-score was inactive: 0.0473. In the case of GGUGAAGCAGAUCAACAAGTT against Stmn2, the z-score is reported as inactive: 2.28. In the case of “GGUGGUUUACCAAACGGUGTT against 2210023G05Rik”, the z-score is reported as inactive: -0.421. In the case of GGCCGAGUACAAACGUGGATT against AU019532, the z-score is reported as inactive: 0.561.
